Laboratory results as given in PubChem BioAssay AID220 (DTP/NCI, 2004).
The list does not hold the whole screen: it is rich in T/C values a quarter to a half above the control, in often repeated tests (any T/C) and in doses without a T/C. Further doses and runs are listed elsewhere. T/C is the treated group as % of the vehicle group. Schedules are NCI's codes, taken here to give the interval after Q, in days (D) or hours (H), and the number of doses after X. Some T/C values carry the count of animals alive at the toxicity check (mostly the fifth day); without a count, all were alive then. Some entries give survivors of the animals treated and no T/C: the source holds a T/C of zero for them, seemingly a mark for toxic or unscored doses. Survivors were counted at the toxicity check, usually on the fifth day, unless a day is given; later deaths do not show. Some doses were run more than once; their values stand side by side, smallest first.

Test system: CD8F1 mice, subcutaneous mammary adenocarcinoma, T/C%
Assay: NCI In Vivo Anticancer Drug Screen. Data for tumor model Mammary Adenocarcinoma CD8F1 (subcutaneous) in CD8F1
Settings: higher T/C = larger tumour
Method in brief: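 Compound-treated versus vehicle-treated mice with transplantable tumors; survival or tumor size compared as T/C.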

## OC1(CSc2ccccc2)CCCCC1
T/C endpoint: median tumor weight change, dose: 1000.0 mg/kg/injection, schedule: Q01DX001 (ip), vehicle: saline with Tween-80
  survivor count: 0 of 6 on day 27 and 6 of 10 on day 35
T/C endpoint: median tumor weight change, dose: 1500.0 mg/kg/injection, schedule: Q01DX001 (ip), vehicle: saline with Tween-80
  survivor count: 0 of 6 on day 27
T/C endpoint: median tumor weight change, dose: 2000.0 mg/kg/injection, schedule: Q01DX001 (ip), vehicle: saline with Tween-80
  survivor count: 2 of 10 on day 28 and 5 of 10 on day 35

## CCOC(=O)c1c[nH]c2oc(/C=N/N3CC(CN4CCOCC4)OC3=O)cc2c1=O (centres undefined)
T/C endpoint: median tumor weight (est.), dose: 200.0 mg/kg/injection, schedule: Q07DX005 (ip), vehicle: suspension in saline, evaluated on day 30
  T/C: 140 % of control [8 of 10 alive]

## C=C(C)/C([O-])=N/[N+](C)(C)CC(O)CCCCCCCCCCCC (centres undefined)
T/C endpoint: median tumor weight change, dose: 500.0 mg/kg/injection, schedule: Q01DX001 (ip), vehicle: saline
  survivor count: 6 of 10 on day 25
T/C endpoint: median tumor weight change, dose: 1000.0 mg/kg/injection, schedule: Q01DX001 (ip), vehicle: saline
  survivor count: 0 of 10 on day 25
T/C endpoint: median tumor weight change, dose: 2000.0 mg/kg/injection, schedule: Q01DX001 (ip), vehicle: saline
  survivor count: 0 of 10 on day 25

## CCCCCC[C@H]([C@H](C)O)n1cnc2c(N)ncnc21
T/C endpoint: median tumor weight (est.), dose: 6.25 mg/kg/injection, schedule: Q07DX005 (ip), vehicle: Klucel (hydroxypropylcellulose) (HPC), evaluated on day 30
  T/C: 143 % of control [7 of 10 alive on day 30]
T/C endpoint: median tumor weight (est.), dose: 100.0 mg/kg/injection, schedule: Q07DX005 (ip), vehicle: Klucel (hydroxypropylcellulose) (HPC), evaluated on day 30
  T/C: 133 % of control
T/C endpoint: median tumor weight (est.), dose: 200.0 mg/kg/injection, schedule: Q07DX005 (ip), vehicle: Klucel (hydroxypropylcellulose) (HPC)
  survivor count: 1 of 10 on day 30 and 5 of 10
T/C endpoint: median tumor weight change, dose: 400.0 mg/kg/injection, schedule: Q01DX001 (ip), vehicle: Klucel (hydroxypropylcellulose) (HPC)
  survivor count: 1 of 10 on day 28
T/C endpoint: median tumor weight change, dose: 800.0 mg/kg/injection, schedule: Q01DX001 (ip), vehicle: Klucel (hydroxypropylcellulose) (HPC)
  survivor count: 0 of 10 on day 28

## COc1cccc2c1C(=O)c1c(O)c3c(c(O)c1C2=O)C[C@@](O)(C(=O)CO)C[C@@H]3OC1CC(N)CC(C)O1 (some centres undefined)
T/C endpoint: median tumor weight change, dose: 7.5 mg/kg/injection, schedule: Q01DX001 (ip), vehicle: water
  survivor count: 1 of 10 on day 28
T/C endpoint: median tumor weight change, dose: 15.0 mg/kg/injection, schedule: Q01DX001 (ip), vehicle: water
  survivor count: 0 of 10 on day 28
T/C endpoint: median tumor weight change, dose: 30.0 mg/kg/injection, schedule: Q01DX001 (ip), vehicle: water
  survivor count: 0 of 10 on day 28

## Cc1cc(NCCCCCCNc2cc(C)nc3cc(N(C)C)ccc23)c2ccc(N(C)C)cc2n1
T/C endpoint: median tumor weight change, dose: 250.0 mg/kg/injection, schedule: Q01DX001 (ip), vehicle: distilled water + Tween-80 + alcohol
  survivor count: 0 of 10 on day 31
T/C endpoint: median tumor weight change, dose: 500.0 mg/kg/injection, schedule: Q01DX001 (ip), vehicle: distilled water + Tween-80 + alcohol
  survivor count: 0 of 10 on day 31

## C[C@H](N)C(=O)N[C@@H]1[C@H]2C(=C(O)C[C@@H](O)[C@@H]2O)C(=O)O[C@]1(C)C(Cl)Cl
T/C endpoint: median tumor weight change, dose: 7.5 mg/kg/injection, schedule: Q01DX001 (ip), vehicle: Klucel (hydroxypropylcellulose) (HPC)
  survivor count: 6 of 10 on day 28
T/C endpoint: median tumor weight change, dose: 15.0 mg/kg/injection, schedule: Q01DX001 (ip), vehicle: Klucel (hydroxypropylcellulose) (HPC)
  survivor count: 0 of 10 on day 28
T/C endpoint: median tumor weight change, dose: 30.0 mg/kg/injection, schedule: Q01DX001 (ip), vehicle: Klucel (hydroxypropylcellulose) (HPC)
  survivor count: 0 of 10 on day 28

## O=C(CC(=O)C(F)(F)F)c1csc2ccccc12
T/C endpoint: median tumor weight change, dose: 250.0 mg/kg/injection, schedule: Q01DX001 (ip), vehicle: Klucel (hydroxypropylcellulose) (HPC)
  survivor count: 0 of 10 on day 31
T/C endpoint: median tumor weight change, dose: 500.0 mg/kg/injection, schedule: Q01DX001 (ip), vehicle: Klucel (hydroxypropylcellulose) (HPC)
  survivor count: 0 of 10 on day 31
T/C endpoint: median tumor weight change, dose: 1000.0 mg/kg/injection, schedule: Q01DX001 (ip), vehicle: Klucel (hydroxypropylcellulose) (HPC)
  survivor count: 0 of 10 on day 31
T/C endpoint: median tumor weight change, dose: 2000.0 mg/kg/injection, schedule: Q01DX001 (ip), vehicle: Klucel (hydroxypropylcellulose) (HPC)
  survivor count: 0 of 10 on day 31

## CNC=O
T/C endpoint: median tumor weight change, dose: 400.0 mg/kg/injection, schedule: Q01DX001 (ip), vehicle: saline sonified
  survivor count: 4 of 10 on day 34
T/C endpoint: median tumor weight change, dose: 400.0 mg/kg/injection, schedule: Q01DX001 (ip), vehicle: saline, evaluated on day 34
  T/C: 136 % of control
T/C endpoint: median tumor weight change, dose: 800.0 mg/kg/injection, schedule: Q01DX001 (ip), vehicle: saline sonified
  survivor count: 3 of 10 on day 34
T/C endpoint: median tumor weight change, dose: 1600.0 mg/kg/injection, schedule: Q01DX001 (ip), vehicle: saline sonified
  survivor count: 0 of 10 on day 34
T/C endpoint: median tumor weight change, dose: 3200.0 mg/kg/injection, schedule: Q01DX001 (ip), vehicle: saline sonified
  survivor count: 0 of 10 on day 34
